All values are in %. The record does not define 0% and 100%; most values in the screen are far below 50% and negative numbers occur (in some assays of this library far below -100). Compounds were drawn at random from those tested, without regard to their results.

Amino acid sequences for entries named in this document (tags omitted).
UniProt E9BF75, entry or part of it: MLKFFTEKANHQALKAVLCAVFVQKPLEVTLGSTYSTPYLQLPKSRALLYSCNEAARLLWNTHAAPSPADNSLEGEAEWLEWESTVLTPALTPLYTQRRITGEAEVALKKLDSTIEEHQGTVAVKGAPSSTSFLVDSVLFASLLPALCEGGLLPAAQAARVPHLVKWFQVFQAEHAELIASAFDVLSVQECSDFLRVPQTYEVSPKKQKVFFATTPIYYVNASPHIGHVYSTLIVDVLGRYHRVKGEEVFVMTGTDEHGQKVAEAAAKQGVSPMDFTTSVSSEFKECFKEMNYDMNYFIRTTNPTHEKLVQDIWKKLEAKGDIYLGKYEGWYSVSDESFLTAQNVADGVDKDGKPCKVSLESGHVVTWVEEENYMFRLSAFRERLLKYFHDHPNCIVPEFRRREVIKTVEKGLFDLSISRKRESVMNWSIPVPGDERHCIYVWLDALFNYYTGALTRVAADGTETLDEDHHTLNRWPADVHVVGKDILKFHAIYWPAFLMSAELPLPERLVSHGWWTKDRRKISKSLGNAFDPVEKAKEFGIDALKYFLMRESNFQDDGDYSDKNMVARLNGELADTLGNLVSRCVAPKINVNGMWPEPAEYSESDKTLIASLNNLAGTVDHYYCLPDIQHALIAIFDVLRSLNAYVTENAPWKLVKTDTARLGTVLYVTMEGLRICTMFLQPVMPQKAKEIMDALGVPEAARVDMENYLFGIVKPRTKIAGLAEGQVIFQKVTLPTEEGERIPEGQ

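Methionyl-tRNA synthetase (putative), Leishmania donovani (UniProt E9BF75). Primary screen of methionyl-tRNA synthetase; the read-out is not stated. The test concentration is not given. The values are filed as inhibition. Size under these conditions: about 68,000 compounds, about 24 of them at 50% or above in at least one test.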

| Compound | inhibition |
|---|---|
| `Cc1ccc(-c2nnc(CN3CC[C@H](CO)[C@@H](O)C3)o2)n1C` | 17.58 |
| `CC(=O)N1CC(C)CN(C(=O)c2cccnc2C)c2ccccc21` (stereo unspecified) | 20.92 |
| `Cn1ncnc1NCc1ccc(F)cc1` | 7.43 |
| `CCNc1cc2c(nn1)CCN(C(=O)CCc1c(C)noc1Cl)C2` | 12.01 |
| `O=C1CCC2(CCCN(Cc3nnc(C4CC4)o3)C2)CN1CCO` (stereo unspecified) | 8.125 |
| `O=C(NCCCNc1ccccn1)NCC1CCS(=O)(=O)C1` (stereo unspecified) | 7.652 |
| `CCn1nc(C)c2nnn(CC(=O)Nc3ccc(C)cc3)c(=O)c21` | -11.81 |
| `O=C(NC1CC1)C(c1ccccc1)N1CCN(Cc2ccc(Cl)s2)CC1` (stereo unspecified) | 12.66 |
| `CCC(NC(=O)NCc1ccoc1C)c1c(C)nn(C)c1C` (stereo unspecified) | 13.74 |
| `Cc1cc(C)n(CCNCc2cc(-c3ccc(Cl)cc3)c[nH]c2=O)n1` | 9.748 |
| `CN1CCN(c2ccc(Br)cc2NC(=O)c2ccco2)CC1` | 9.851 |
| `O=C(NCc1ccccc1CO)Nc1ccc2c(c1)CCO2` | 5.495 |
| `O=C(Cn1cnc2cc3c(cc21)OCCCO3)NC1CCCCC1` | 9.841 |
| `Cc1cn2c(n1)CCC(NC(=O)c1cc(C(C)C)no1)C2` (stereo unspecified) | 13.89 |
| `Cc1c(S(=O)(=O)NC2CC2)cc2c(C)cc(=O)n3c2c1CCC3` | 17.84 |
| `Cc1ccc(Br)cc1S(=O)(=O)NCCc1nnc[nH]1` | 9.549 |
| `Cc1nc(C)c(-c2ccn(CC(=O)Nc3cnn(C)n3)n2)s1` | 15.81 |
| `Cc1noc([C@]23COC[C@H]2CN(C(=O)C2CCOCC2)C3)n1` | 9.446 |
| `Cn1cnc2cc(NC(=O)c3n[nH]c4c3CCC4)ccc21` | 12.87 |
| `Cc1ccc(CC(=O)N2C[C@@H](CN(C)C)[C@@H](CO)C2)cc1C` | 6.863 |
| `CC(=O)NCCCNCc1ccc(Cl)c2cccnc12` | 5.128 |
| `O=C(CCn1nnc2ccccc2c1=O)N(CC1CCOC1)C1CC1` (stereo unspecified) | 5.59 |
| `CCOc1cc(C(=O)N2CCCC(c3noc(C)n3)C2)ccn1` (stereo unspecified) | 14.96 |
| `CC1CN(C(=O)NCCc2nc(C(C)C)no2)CCO1` (stereo unspecified) | 8.169 |
| `Cc1nc(CNC(C)c2cccc(N3CCCC3=O)c2)cs1` (stereo unspecified) | 3.846 |
| `O=C(Cc1cccc(Cl)c1)N[C@@H]1CCNC[C@H]1O` | 15.24 |
| `CN(Cc1ccco1)C(=O)CN1CCCCC1Cn1cncn1` (stereo unspecified) | 8.591 |
| `CNS(=O)(=O)c1ccc(CNC(=O)c2cc(C)no2)cc1` | 7.986 |
| `CN(C)C(CNCc1nc(-c2ccsc2)no1)c1cccs1` (stereo unspecified) | 4.261 |
| `Cn1cc(Br)c(C(=O)NCCCn2cc(Br)cn2)n1` | 8.189 |
| `Cc1cc(C)c(CNC(=O)N2CCCC2c2cccn2C)c(=O)[nH]1` (stereo unspecified) | 38.19 |
| `Cc1nc(CCNC(=O)NCc2ccc(N(C)C)nc2)cs1` | 13.73 |
| `O=C(NCCCN1CCOCC1)c1ccn(COc2ccccc2)n1` | 0.2513 |
| `Cc1cccc2[nH]c(C3CCN(C(=O)c4cccnn4)CC3)nc12` | 1.338 |
| `CC(=O)N1CCC(C)(c2cc[nH]n2)CC1` | 20.89 |
| `Cc1ccc(CN2CCO[C@H]3[C@@H](OCc4cccnc4)CC[C@@H]32)o1` | 7.792 |
| `Cc1ccccc1C(=O)N1CCOC(c2ncc(CN(C)C)[nH]2)C1` (stereo unspecified) | 18.1 |
| `Cc1ccc(NC(C)(C)c2nnnn2-c2ccc(Cl)cc2)c(C)c1` | 9.392 |
| `CN(C)c1ncnc2c1CCN(c1cc(C(F)(F)F)ncn1)CC2` | 15.96 |
| `OCCNc1cc(-c2ccncc2)ncn1` | 14.32 |
| `CCc1nc(N)sc1C(=O)N1CCCC(CCc2ccccc2C)C1` (stereo unspecified) | 16.73 |
| `CCc1nc(CN(C)CC2CCN(CCO)CC2)no1` | 8.333 |
| `Cc1nc(-c2ccnc(N3CCNCC3)n2)no1` | 16.71 |
| `CCOc1cccc(CNc2ccccc2OC)c1O` | 9.394 |
| `CCCn1ccnc1CNC(=O)C1COc2cc(OC)ccc2C1` (stereo unspecified) | 5.282 |
| `COc1cccc2ccn(CC(=O)NCC(C)C)c12` | 6.364 |
| `O=C(NC1CC1)[C@@H]1C[C@@H]2CCN(Cc3ccccc3)C[C@@H]2O1` | 1.099 |
| `N#Cc1c(F)cccc1N1CCCC(C(=O)Nc2nccs2)C1` (stereo unspecified) | 18.31 |
| `Cc1ccc(C)c(OCC(=O)NC2CCN(c3ccccn3)CC2)c1` | 19.45 |
| `CN(C)c1ccc(CN2C[C@H]3CC[C@@H]2CN(C2CCOCC2)C3)cn1` | 11.85 |
| `Cc1ccc(-c2cc(C(=O)O)sn2)cc1` | 10.72 |
| `CC(CN1CCOCC1)n1cncc1-c1ccc2c(c1)CCCN2C` (stereo unspecified) | 15.43 |
| `CNc1cccc(C2CCCN(C(=O)c3ccn(C)n3)C2)n1` (stereo unspecified) | 5.085 |
| `c1coc(-c2noc(CN3CC(n4cccn4)C3)n2)c1` | -9.028 |
| `COC(=O)C(CNC(=O)Nc1cn[nH]c1)Cc1cccc(C)c1` (stereo unspecified) | 16.36 |
| `Fc1ccc(Br)c(NCc2nnsc2Cl)c1` | 6.183 |
| `CC(=O)c1ccc(-n2ccc3nc(N4CCCC4)ncc3c2=O)cc1` | 11.17 |
| `O=C(NCCC1CCN(CC(F)(F)F)CC1)C1CCCO1` (stereo unspecified) | 7.833 |
| `Cc1cnc(C(=O)N2CCCCC2c2[nH]ncc2S(C)(=O)=O)cn1` (stereo unspecified) | 17.83 |

4 of the entries, repeated:

* Cc1cccc2[nH]c(C3CCN(C(=O)c4cccnn4)CC3)nc12 | 1.338%
* CC(=O)N1CCC(C)(c2cc[nH]n2)CC1 | 20.89%
* O=C(CCn1nnc2ccccc2c1=O)N(CC1CCOC1)C1CC1 (stereo unspecified) | 5.59%
* Cc1nc(C)c(-c2ccn(CC(=O)Nc3cnn(C)n3)n2)s1 | 15.81%

Source: ChEMBL document CHEMBL3988442, “University of Dundee, Small-Polar-MMV Screening Library” (2021).